# Measured values: the supplement of paper PMC10849652
# Chains of the proteins cited; added tags and fusions are not shown. Lines headed by an entry give the natural chain unless they say otherwise; changes in a name come on top.
# UniProt Q9ULZ3, whole entry, looked up: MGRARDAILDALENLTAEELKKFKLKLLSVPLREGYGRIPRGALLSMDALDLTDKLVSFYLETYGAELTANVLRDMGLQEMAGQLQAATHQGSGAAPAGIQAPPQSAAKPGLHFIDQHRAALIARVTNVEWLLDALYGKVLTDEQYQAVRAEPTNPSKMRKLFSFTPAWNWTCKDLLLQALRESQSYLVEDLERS
# UniProt Q6GYQ0: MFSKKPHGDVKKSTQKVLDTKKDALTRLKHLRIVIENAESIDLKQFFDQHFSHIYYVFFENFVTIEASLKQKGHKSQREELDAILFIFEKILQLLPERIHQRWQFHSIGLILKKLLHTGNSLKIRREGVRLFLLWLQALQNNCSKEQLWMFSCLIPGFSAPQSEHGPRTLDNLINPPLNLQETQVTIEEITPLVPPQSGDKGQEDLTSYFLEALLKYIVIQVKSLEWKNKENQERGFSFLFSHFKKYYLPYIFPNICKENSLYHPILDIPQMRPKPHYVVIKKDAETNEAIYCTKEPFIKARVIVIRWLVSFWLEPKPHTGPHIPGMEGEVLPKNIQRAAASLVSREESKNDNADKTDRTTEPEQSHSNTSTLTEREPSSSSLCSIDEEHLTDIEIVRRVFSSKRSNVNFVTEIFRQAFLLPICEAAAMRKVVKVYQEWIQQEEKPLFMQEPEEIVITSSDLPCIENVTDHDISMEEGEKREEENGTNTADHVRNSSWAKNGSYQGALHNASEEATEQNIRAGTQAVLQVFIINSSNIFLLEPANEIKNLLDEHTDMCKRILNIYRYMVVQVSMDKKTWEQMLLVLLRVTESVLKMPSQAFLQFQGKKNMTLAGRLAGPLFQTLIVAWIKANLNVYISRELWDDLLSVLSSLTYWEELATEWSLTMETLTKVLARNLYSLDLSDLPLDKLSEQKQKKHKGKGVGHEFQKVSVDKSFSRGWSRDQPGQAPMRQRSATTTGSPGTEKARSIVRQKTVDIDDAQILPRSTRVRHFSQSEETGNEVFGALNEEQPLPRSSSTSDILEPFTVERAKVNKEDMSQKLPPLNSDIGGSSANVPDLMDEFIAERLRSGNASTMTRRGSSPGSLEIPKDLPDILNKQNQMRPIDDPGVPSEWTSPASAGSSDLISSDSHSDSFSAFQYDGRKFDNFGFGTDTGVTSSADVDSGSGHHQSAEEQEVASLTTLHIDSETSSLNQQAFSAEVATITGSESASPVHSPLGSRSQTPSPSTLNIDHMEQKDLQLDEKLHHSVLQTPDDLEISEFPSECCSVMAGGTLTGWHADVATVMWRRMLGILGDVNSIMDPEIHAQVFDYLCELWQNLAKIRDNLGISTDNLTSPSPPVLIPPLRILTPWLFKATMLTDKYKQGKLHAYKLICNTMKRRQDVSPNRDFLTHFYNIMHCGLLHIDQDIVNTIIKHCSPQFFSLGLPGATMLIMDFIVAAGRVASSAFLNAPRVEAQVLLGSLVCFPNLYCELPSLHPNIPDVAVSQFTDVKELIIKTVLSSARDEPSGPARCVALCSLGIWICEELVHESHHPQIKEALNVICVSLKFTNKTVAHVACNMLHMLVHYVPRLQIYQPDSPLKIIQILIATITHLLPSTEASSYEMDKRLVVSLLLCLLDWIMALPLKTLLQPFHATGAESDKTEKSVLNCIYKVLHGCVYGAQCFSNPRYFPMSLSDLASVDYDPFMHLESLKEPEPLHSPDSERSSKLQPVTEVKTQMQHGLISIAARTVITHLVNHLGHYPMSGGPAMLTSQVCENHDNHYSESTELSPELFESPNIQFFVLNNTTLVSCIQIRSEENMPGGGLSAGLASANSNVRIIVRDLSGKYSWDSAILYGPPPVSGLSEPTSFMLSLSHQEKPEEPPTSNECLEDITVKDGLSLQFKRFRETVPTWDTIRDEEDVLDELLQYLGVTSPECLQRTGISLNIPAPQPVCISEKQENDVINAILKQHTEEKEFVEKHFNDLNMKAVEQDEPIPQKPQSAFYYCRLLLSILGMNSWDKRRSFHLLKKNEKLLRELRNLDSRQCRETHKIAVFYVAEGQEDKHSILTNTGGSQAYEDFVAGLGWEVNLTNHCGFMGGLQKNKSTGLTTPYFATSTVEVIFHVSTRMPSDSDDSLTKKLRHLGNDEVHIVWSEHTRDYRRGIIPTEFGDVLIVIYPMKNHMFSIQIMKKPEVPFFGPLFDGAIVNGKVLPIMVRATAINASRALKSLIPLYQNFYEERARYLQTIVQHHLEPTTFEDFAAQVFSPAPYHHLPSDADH
# UniProt Q9Y3L5: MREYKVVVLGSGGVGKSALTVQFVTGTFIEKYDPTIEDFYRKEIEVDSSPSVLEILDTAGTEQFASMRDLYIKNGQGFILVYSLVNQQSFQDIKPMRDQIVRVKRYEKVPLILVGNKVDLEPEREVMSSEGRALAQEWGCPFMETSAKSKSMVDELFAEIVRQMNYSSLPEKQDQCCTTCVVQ
# UniProt Q3YEC7: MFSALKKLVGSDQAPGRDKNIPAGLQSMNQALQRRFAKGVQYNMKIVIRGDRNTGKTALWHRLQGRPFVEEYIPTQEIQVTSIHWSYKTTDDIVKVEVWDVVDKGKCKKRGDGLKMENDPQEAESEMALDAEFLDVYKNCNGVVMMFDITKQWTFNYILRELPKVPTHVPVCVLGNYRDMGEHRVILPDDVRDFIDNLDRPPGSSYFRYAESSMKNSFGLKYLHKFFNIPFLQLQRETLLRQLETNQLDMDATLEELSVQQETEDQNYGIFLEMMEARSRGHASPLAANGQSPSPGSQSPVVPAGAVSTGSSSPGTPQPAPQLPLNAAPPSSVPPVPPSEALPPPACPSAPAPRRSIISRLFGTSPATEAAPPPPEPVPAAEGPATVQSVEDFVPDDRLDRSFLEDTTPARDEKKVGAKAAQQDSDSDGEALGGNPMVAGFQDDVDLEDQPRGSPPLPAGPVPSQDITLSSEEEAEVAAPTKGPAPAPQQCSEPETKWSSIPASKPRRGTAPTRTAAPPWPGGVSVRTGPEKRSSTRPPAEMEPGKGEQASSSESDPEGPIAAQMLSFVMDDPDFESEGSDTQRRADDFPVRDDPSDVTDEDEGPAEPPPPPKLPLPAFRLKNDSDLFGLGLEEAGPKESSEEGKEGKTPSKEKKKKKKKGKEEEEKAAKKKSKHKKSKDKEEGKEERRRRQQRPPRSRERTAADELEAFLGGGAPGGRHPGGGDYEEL
# UniProt P78406: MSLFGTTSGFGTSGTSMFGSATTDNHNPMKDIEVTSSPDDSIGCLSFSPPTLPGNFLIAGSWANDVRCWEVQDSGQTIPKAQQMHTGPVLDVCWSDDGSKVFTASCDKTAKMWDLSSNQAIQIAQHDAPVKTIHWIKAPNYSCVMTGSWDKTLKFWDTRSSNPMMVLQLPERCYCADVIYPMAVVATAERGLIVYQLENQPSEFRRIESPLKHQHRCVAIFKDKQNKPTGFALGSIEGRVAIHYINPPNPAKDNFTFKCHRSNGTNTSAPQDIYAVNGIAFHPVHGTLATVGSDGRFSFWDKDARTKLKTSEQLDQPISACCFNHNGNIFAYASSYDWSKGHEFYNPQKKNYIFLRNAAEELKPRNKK
# UniProt Q86YS3: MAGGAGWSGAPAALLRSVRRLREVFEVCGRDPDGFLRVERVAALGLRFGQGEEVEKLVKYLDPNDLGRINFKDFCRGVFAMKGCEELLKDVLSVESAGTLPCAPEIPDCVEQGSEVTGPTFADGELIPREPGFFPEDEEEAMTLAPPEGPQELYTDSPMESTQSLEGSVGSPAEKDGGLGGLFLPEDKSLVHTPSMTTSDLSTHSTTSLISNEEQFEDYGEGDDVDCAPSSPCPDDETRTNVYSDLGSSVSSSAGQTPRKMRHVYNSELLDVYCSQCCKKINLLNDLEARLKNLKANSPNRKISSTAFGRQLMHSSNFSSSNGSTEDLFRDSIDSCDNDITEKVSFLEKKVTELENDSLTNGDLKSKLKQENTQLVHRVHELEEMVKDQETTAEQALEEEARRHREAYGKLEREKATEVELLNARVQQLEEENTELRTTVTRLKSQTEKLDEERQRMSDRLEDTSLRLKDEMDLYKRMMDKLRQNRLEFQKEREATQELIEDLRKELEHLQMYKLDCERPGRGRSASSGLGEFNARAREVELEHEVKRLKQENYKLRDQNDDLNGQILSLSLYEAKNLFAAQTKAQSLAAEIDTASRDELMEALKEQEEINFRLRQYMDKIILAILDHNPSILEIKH
# UniProt P10114: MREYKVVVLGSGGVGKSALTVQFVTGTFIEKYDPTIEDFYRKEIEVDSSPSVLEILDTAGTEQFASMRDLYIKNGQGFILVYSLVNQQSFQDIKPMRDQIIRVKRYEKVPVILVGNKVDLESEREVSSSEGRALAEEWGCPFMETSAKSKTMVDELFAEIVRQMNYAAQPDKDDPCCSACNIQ
# UniProt Q92698: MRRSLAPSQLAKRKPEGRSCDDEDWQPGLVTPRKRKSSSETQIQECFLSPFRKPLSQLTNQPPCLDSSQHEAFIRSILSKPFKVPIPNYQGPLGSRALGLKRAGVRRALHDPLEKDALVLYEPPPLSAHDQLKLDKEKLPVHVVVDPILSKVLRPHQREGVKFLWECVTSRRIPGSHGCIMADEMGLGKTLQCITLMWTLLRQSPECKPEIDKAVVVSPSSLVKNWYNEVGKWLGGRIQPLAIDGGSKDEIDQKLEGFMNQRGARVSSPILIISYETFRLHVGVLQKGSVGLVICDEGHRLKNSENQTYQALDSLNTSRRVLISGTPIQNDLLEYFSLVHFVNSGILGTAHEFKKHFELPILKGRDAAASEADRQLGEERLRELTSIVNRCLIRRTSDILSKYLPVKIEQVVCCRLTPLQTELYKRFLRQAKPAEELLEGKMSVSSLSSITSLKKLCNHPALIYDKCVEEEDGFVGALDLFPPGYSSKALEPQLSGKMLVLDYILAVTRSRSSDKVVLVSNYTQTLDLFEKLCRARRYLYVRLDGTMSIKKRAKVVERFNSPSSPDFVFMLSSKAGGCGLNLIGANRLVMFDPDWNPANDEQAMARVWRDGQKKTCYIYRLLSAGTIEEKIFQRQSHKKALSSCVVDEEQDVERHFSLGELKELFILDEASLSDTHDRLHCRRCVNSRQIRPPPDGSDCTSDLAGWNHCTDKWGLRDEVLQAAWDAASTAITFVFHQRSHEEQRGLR
# UniProt Q9NX57: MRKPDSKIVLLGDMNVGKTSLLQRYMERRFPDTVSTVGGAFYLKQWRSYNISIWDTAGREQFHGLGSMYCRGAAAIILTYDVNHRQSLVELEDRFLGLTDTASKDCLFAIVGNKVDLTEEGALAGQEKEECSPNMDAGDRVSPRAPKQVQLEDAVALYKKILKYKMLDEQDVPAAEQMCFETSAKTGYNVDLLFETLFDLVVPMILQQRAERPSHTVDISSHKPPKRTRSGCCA
# This is one part of the list.
# Key:
# Assay in all cases: log2 fold change, soluble protein after heating vs DMSO (PISA); higher = thermal stabilisation; K562 lysate, 10 uM; active = over 0.2 and 3.5 SD of the protein, either way, in both replicates (recomputed)
# [1] = compound: C=CC(=O)N1CCC[C@@H](n2nc(-c3ccc(Oc4ccccc4)cc3)c3c(N)ncnc32)C1 [ibrutinib]
# Summary of the method: (§1)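 Values give the log-two fold change in thermal stability against solvent controls, from duplicates. Crude K562 extract at 1 mg/mL protein, made by dounce homogenisation in PBS pH 7.4 with 1 mM MgCl2, was treated with 10 μM compound for 30 min. After 3 min heating across 48°C-58°C, aliquots were pooled, adjusted to 0.5% NP-40 at 4°C and centrifuged at 21,000xg for 90 min. The supernatant was measured by TMTpro 16plex LC-MS/MS with channel sums equalised.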
# [2] = compound: CC(=O)c1cnc2ccc(-c3cc(Cl)c(O)c(Cl)c3)nc2c1N[C@H]1CC[C@H](CN(C)C)CC1
# Summary of the method: as §1
# [3] = compound: CC(C)(C)Cn1c(N)nc2ccc(-c3[nH]c(C(C)(C)C)nc3-c3ccc(F)cc3)nc21 [ralimetinib]
# Summary of the method: as §1
# [4] = compound: CC(C)(O)CC(=O)NCCn1ccc2ncnc(Nc3ccc(Oc4cccc(C(F)(F)F)c4)c(Cl)c3)c21
# Summary of the method: as §1
# [5] = compound: CC(C)C1=C2N=C(C=C(N2N=C1)NCC3=CC=CC=C3)NCCCCCCN
# Summary of the method: as §1
# [6] = compound: CC1=C(C(CC(=O)N1)C2=CC=C(C=C2)C(F)(F)F)C(=O)NC3=C(C=C4C(=C3)C=NN4)F
# Summary of the method: as §1
# [7] = compound: CC1=C(C2=C(C=C1)C(=O)C3=CC=CC=C3N2CCCN)C
# Summary of the method: as §1
# [8] = compound: CC1=C(C=C(C=C1)NC(=O)C2=CC(=CC=C2)C(C)(C)C#N)NC3=CC4=C(C=C3)N=CN(C4=O)C
# Summary of the method: as §1
# [9] = compound: CC1=C(C=C(C=C1)NC(=O)C2=CC(=CC=C2)N(C)C)NC(=O)C3=CC=C(C=C3)O
# Summary of the method: as §1
# [10] = compound: CC1=CC=C(C=C1)SC2=C3C=C(SC3=CN=C2)C(=O)N
# Summary of the method: as §1
# [11] = compound: CCCS(=O)(=O)Nc1ccc(F)c(C(=O)c2c[nH]c3ncc(-c4ccc(Cl)cc4)cc23)c1F [vemurafenib]
# Summary of the method: as §1
# [12] = compound: CCCS(=O)(=O)Nc1ccc(F)c(C(=O)c2c[nH]c3ncc(Cl)cc23)c1F
# Summary of the method: as §1
# [13] = compound: CCN(CCCOc1ccc2c(Nc3cc(CC(=O)Nc4cccc(F)c4)[nH]n3)ncnc2c1)CCOP(=O)(O)O [barasertib]
# Summary of the method: as §1
# [14] = compound: CC[C@@H]1C(=O)N(C)c2cnc(Nc3ccc(C(=O)NC4CCN(C)CC4)cc3OC)nc2N1C1CCCC1
# Summary of the method: as §1
# [15] = compound: CC[C@@H]1C(=O)N(C)c2cnc(Nc3ccc(C(=O)N[C@H]4CC[C@H](N5CCN(CC6CC6)CC5)CC4)cc3OC)nc2N1C(C)C [volasertib]
# Summary of the method: as §1
# [16] = compound: CCn1c(C(=O)N(C2CC2)C2CC2)cc2c3c(ncn3C)c(Nc3cc(C)n(C)n3)nc21
# Summary of the method: as §1
# [17] = compound: CCn1cc(-c2ccnc3[nH]c(-c4cccc(CN(C)C)c4)cc23)c(-c2ccc(NC(=O)N(C)C)cc2)n1
# Summary of the method: as §1
# [18] = compound: CN1CCC(CNc2ccc3ncc(-c4cccc(OC(F)(F)F)c4)n3n2)CC1
# Summary of the method: as §1
# [19] = compound: CN1CCN(CCOc2cc(OC3CCOCC3)c3c(Nc4c(Cl)ccc5c4OCO5)ncnc3c2)CC1 [saracatinib]
# Summary of the method: as §1
# [20] = compound: CN1CCN(c2nc(C3=C(c4c[nH]c5ccccc45)C(=O)NC3=O)c3ccccc3n2)CC1 [sotrastaurin]
# Summary of the method: as §1
Target,log2 fold change [1],log2 fold change [2],log2 fold change [3],log2 fold change [4],log2 fold change [5],log2 fold change [6],log2 fold change [7],log2 fold change [8],log2 fold change [9],log2 fold change [10],log2 fold change [11],log2 fold change [12],log2 fold change [13],log2 fold change [14],log2 fold change [15],log2 fold change [16],log2 fold change [17],log2 fold change [18],log2 fold change [19],log2 fold change [20]
PYCARD (UniProt Q9ULZ3),inactive: 0.091,inactive: -0.007,inactive: -0.005,inactive: -0.005,inactive: -0.007,inactive: 0,inactive: -0.019,inactive: -0.019,inactive: 0.007,inactive: -0.019,inactive: 0.038,inactive: 0.004,inactive: 0.067,inactive: 0.036,inactive: -0.016,inactive: -0.015,inactive: -0.092,inactive: 0.071,inactive: -0.084,inactive: -0.018
RALGAPA1 isoform 6 (UniProt Q6GYQ0),inactive: 0.047,inactive: -0.06,inactive: 0.01,inactive: 0.002,inactive: -0.01,inactive: -0.039,inactive: 0.02,inactive: -0.007,inactive: 0.038,inactive: -0.081,inactive: -0.008,inactive: 0.017,inactive: 0.196,inactive: 0.02,inactive: -0.03,inactive: -0.007,active: -0.377,inactive: 0.074,inactive: 0.049,inactive: 0.03
RAF1 isoform 2 (UniProt P04049),inactive: -0.046,inactive: 0.047,inactive: 0.054,inactive: 0.004,inactive: 0.065,inactive: 0.092,inactive: -0.055,active: 0.359,inactive: 0,inactive: 0.027,active: 0.739,inactive: -0.142,inactive: 0.068,inactive: -0.159,inactive: -0.083,inactive: -0.029,inactive: -0.028,inactive: -0.037,inactive: -0.014,inactive: -0.041
RAD54L2 (UniProt Q9Y4B4),inactive: -0.005,inactive: 0.23,,,inactive: -0.073,inactive: 0.131,inactive: -0.051,inactive: 0.031,,inactive: 0.094,inactive: 0.159,inactive: 0.081,inactive: -0.032,inactive: -0.201,inactive: -0.072,,inactive: -0.149,inactive: 0,inactive: 0.078,inactive: -0.061
RAP2C (UniProt Q9Y3L5),inactive: 0.084,inactive: 0.006,inactive: 0.06,inactive: -0.042,inactive: 0.012,inactive: 0.014,inactive: -0.03,inactive: 0.009,inactive: -0.087,inactive: 0.06,inactive: -0.215,inactive: -0.002,inactive: 0.088,inactive: 0.049,inactive: -0.097,inactive: -0.05,inactive: -0.057,inactive: 0.04,inactive: 0,inactive: 0.022
RAB28 (UniProt P51157),inactive: -0.053,inactive: -0.018,inactive: 0.033,inactive: -0.046,inactive: -0.075,,inactive: 0.081,inactive: -0.093,inactive: -0.013,inactive: -0.063,inactive: 0.239,inactive: -0.297,inactive: 0.196,inactive: -0.056,inactive: -0.135,inactive: 0.11,inactive: -0.119,inactive: 0.038,inactive: 0.106,inactive: 0.05
RABL6 (UniProt Q3YEC7),inactive: 0.01,inactive: -0.032,inactive: 0.022,inactive: -0.016,inactive: -0.014,inactive: -0.001,inactive: 0.001,inactive: 0.019,inactive: 0.005,inactive: -0.001,inactive: -0.062,inactive: 0.006,inactive: 0.023,inactive: 0.064,inactive: 0.013,inactive: 0,inactive: -0.041,inactive: 0.027,inactive: 0.002,inactive: 0.005
RAE1 (UniProt P78406),inactive: -0.033,inactive: -0.01,inactive: 0.007,inactive: 0.185,inactive: -0.007,inactive: -0.022,inactive: 0.012,inactive: -0.064,inactive: 0.011,inactive: 0.023,inactive: -0.017,inactive: -0.021,inactive: -0.051,inactive: 0.04,inactive: -0.081,inactive: 0.018,active: -0.355,inactive: 0.131,inactive: 0.039,inactive: 0.044
RAB11FIP4 (UniProt Q86YS3),inactive: -0.127,inactive: 0.098,inactive: -0.177,inactive: 0.042,inactive: -0.005,inactive: 0.035,inactive: 0.205,,inactive: -0.29,inactive: -0.02,inactive: 0.158,inactive: 0.13,inactive: -0.016,inactive: -0.066,inactive: -0.078,inactive: 0.037,,,inactive: 0.025,
RAP2A (UniProt P10114),inactive: 0.025,inactive: -0.004,inactive: 0.019,inactive: -0.018,inactive: 0.005,inactive: -0.031,inactive: -0.039,inactive: 0.041,inactive: -0.028,inactive: 0.008,inactive: -0.027,inactive: -0.008,inactive: 0.059,inactive: -0.053,inactive: -0.012,inactive: -0.025,inactive: 0.026,inactive: 0.003,inactive: 0.026,inactive: 0.008
RAD54L (UniProt Q92698),inactive: -0.081,inactive: 0.035,inactive: -0.062,inactive: -0.224,inactive: 0.085,inactive: 0,inactive: 0.039,,inactive: 0.054,inactive: 0.059,,inactive: -0.054,inactive: 0.012,,inactive: 0.015,inactive: 0.005,active: -2.19,inactive: 0.648,inactive: 0.095,
RAB20 (UniProt Q9NX57),inactive: 0.063,inactive: 0.008,inactive: -0.012,inactive: -0.108,inactive: -0.032,inactive: 0.108,inactive: -0.061,inactive: -0.013,inactive: -0.05,inactive: 0.055,inactive: 0.064,inactive: 0.167,inactive: -0.171,inactive: 0.007,inactive: -0.025,inactive: -0.068,,,inactive: -0.016,inactive: -0.001
